# Measurements published in PMC10925025.
# Results are given in words; binding and its absence hold for the method and conditions named. Binding seen in cells or lysates may run through a third protein. Some results given as binding are weak or reduced against the parent protein; the word gives no strength. For some of these results: Tags and fused reporters may be left off the sequences shown.
# T1: GST-tagged STAP-2 (signal-transducing adaptor protein-2), full (UniProt Q9UGK3)
# T1 sequence: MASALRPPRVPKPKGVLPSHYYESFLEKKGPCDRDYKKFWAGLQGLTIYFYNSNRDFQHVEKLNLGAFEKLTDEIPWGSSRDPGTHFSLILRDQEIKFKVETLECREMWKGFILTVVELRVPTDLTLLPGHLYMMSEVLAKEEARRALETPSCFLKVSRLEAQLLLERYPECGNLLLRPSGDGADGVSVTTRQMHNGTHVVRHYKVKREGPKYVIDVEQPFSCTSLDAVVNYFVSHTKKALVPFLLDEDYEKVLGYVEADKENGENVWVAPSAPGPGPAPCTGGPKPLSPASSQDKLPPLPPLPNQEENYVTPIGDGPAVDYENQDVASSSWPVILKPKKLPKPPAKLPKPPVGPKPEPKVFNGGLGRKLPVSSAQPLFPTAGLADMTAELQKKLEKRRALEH
# T2: STAP-2, endogenous in 3T3-L1 cells (mouse (endogenous in 3T3-L1)) (UniProt Q8R0L1)
# T2 sequence: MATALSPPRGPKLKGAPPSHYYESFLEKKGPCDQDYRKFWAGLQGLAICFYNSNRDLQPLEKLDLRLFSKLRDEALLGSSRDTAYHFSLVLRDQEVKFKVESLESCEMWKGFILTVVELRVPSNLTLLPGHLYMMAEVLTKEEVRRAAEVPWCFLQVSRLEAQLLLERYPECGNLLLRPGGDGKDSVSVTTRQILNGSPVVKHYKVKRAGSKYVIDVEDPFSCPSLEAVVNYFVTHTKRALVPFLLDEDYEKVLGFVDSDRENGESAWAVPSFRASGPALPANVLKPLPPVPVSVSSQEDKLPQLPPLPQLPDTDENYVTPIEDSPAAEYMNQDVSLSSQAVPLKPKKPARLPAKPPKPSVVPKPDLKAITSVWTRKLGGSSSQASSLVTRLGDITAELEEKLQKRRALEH
# Experiments:
# [1] = molecular target: Myc-tagged c-Cbl (UniProt P22681); assay: co-IP; HEK293T co-transfected with Myc-Cbl and Myc-CAP together with control GST or GST-STAP-2; lysed 36 h after transfection; immunoprecipitated with anti-c-Cbl antibody; blots with anti-Myc and anti-GST
# [2] = molecular target: T1, GST-tagged STAP-2 (signal-transducing adaptor protein-2), full; assay: pull-down; HEK293T co-transfected with Myc-CAP and GST-STAP-2 constructs; lysed 36 h after transfection (50 mM Tris-HCl pH 7.4, 0.15 M NaCl, 1% NP-40); GSH-sepharose 2 h at 4 °C; blots with anti-Myc and anti-GST
# [3] = molecular target: T2, STAP-2, endogenous in 3T3-L1 cells (mouse (endogenous in 3T3-L1)); assay: co-IP; endogenous proteins; 3T3-L1 lysate on day 6 after adipose differentiation; immunoprecipitated with anti-STAP-2 antibody or normal rabbit IgG; blots with anti-CAP and anti-STAP-2
binding [1],binding [2],binding [3],Binder
binds,–,–,"GST-tagged STAP-2 (signal-transducing adaptor protein-2), full (protein, UniProt Q9UGK3 1-403) MASALRPPRVPKPKGVLPSHYYESFLEKKGPCDRDYKKFWAGLQGLTIYFYNSNRDFQHVEKLNLGAFEKLTDEIPWGSSRDPGTHFSLILRDQEIKFKVETLECREMWKGFILTVVELRVPTDLTLLPGHLYMMSEVLAKEEARRALETPSCFLKVSRLEAQLLLERYPECGNLLLRPSGDGADGVSVTTRQMHNGTHVVRHYKVKREGPKYVIDVEQPFSCTSLDAVVNYFVSHTKKALVPFLLDEDYEKVLGYVEADKENGENVWVAPSAPGPGPAPCTGGPKPLSPASSQDKLPPLPPLPNQEENYVTPIGDGPAVDYENQDVASSSWPVILKPKKLPKPPAKLPKPPVGPKPEPKVFNGGLGRKLPVSSAQPLFPTAGLADMTAELQKKLEKRRALEH"
binds,binds,–,"Myc-tagged c-Cbl associated protein (CAP) (protein, UniProt Q62417 1-1290) MSSECDVGSSKAVVNGLASGNHGPDKDMDPTKICTGKGTVTLRASSSYRGTPSSSPVSPQESPKHESKSGLEPEDPSADEWKLSSSADTNGNAQPSPLAAKGYRSVHPSLSADKPQGSPLLNEVSSSHIETDSQDFPPTSRPSSAYPSTTIVNPTIVLLQHNRDPASERRAGEQDPVPTPAELTSPGRASERRAKDASRRVVRSAQDLSDVSTDEVGIPLRNTERSKDWYKTMFKQIHKLNRDDDSDVHSPRYSFSDDTKSPLSVPRSKSEMNYIEGEKVVKRSATLPLPARSSSLKSSPERNDWEPLDKKVDTRKYRAEPKSIYEYQPGKSSVLTNEKMSRDISPEEIDLKNEPWYKFFSELEFGRPTNLEKDLSFCQAELEADLEKVETVNKSPSANSPQSSAVSPTPDITSEPPGYIYSSNFHAVKRESDGTPGGLASLENERQIYKSVLEGGDIPLQGLSGLKRPSSSASTKVDRKGGNAHMISSSSVHSRTFHTSNALGPGCKHKKPLSAAKACISEILPSKFKPRLSAPSALLQEQKSVLLPSEKAQSCENLCVSLNDSKRGLPLRVGGSIENLLMRSRRDYDSKSSSTMSLQEYGTSSRRPCPLSRKAGLHFSMFYRDMHQINRAGLSLGSISSSSVRDLASHFERSSLTLARGELGASQEGSEHIPKHTVSSRITAFEQLIQRSRSMPSLDFSGRLSKSPTPVLSRSGLTSARSAESLLESTKLRPREMDGMDSGGVYASPTCSNMADHALSFRSLVPSEPLSICSDELDHCSNVSNDSREGSGGSVHGDFPKHRLNKCKGTCPASYTRFTTIRKHEQQSSRQSDWRSDSRGDKNSLLRNIHLMSPLPFRLKKPLQQHPRQPPPSDSSESPAGQKADLPCHDPQDQPHSAGKPQVPTRLSSRHTMARLSHNSEPPLDRPAGLEDCTRAINNGNPVPYSDHGLDRNNNPQSELAAAHGDSESPRHFIPADYLESTEEFIRRRHDDKEKLLADQRRLKREQEEADIAARRHTGVIPTHHQFITNERFGDLLNIDDTAKRKSGLEMRPARAKFDFKAQTLKELPLQKGDVVYIYRQIDQNWYEGEHHGRVGIFPRTYIELLPPAEKAQPRKLAPVQVLEYGEAIAKFNFNGDTQVEMSFRKGERITLLRQVDENWYEGRIPGTSRQGIFPITYVDVLKRPLVKTPVDYIDLPYSSSPSRSATVSPQQPQAQQRRVTPDRSQPSLDLCSYQALYSYVPQNDDELELRDGDIVDVMEKCDDGWFVGTSRRTRQFGTFPGNYVKPLYL"
–,–,binds,"c-Cbl associated protein (CAP), endogenous in 3T3-L1 cells (protein, UniProt Q62417 1-1290) MSSECDVGSSKAVVNGLASGNHGPDKDMDPTKICTGKGTVTLRASSSYRGTPSSSPVSPQESPKHESKSGLEPEDPSADEWKLSSSADTNGNAQPSPLAAKGYRSVHPSLSADKPQGSPLLNEVSSSHIETDSQDFPPTSRPSSAYPSTTIVNPTIVLLQHNRDPASERRAGEQDPVPTPAELTSPGRASERRAKDASRRVVRSAQDLSDVSTDEVGIPLRNTERSKDWYKTMFKQIHKLNRDDDSDVHSPRYSFSDDTKSPLSVPRSKSEMNYIEGEKVVKRSATLPLPARSSSLKSSPERNDWEPLDKKVDTRKYRAEPKSIYEYQPGKSSVLTNEKMSRDISPEEIDLKNEPWYKFFSELEFGRPTNLEKDLSFCQAELEADLEKVETVNKSPSANSPQSSAVSPTPDITSEPPGYIYSSNFHAVKRESDGTPGGLASLENERQIYKSVLEGGDIPLQGLSGLKRPSSSASTKVDRKGGNAHMISSSSVHSRTFHTSNALGPGCKHKKPLSAAKACISEILPSKFKPRLSAPSALLQEQKSVLLPSEKAQSCENLCVSLNDSKRGLPLRVGGSIENLLMRSRRDYDSKSSSTMSLQEYGTSSRRPCPLSRKAGLHFSMFYRDMHQINRAGLSLGSISSSSVRDLASHFERSSLTLARGELGASQEGSEHIPKHTVSSRITAFEQLIQRSRSMPSLDFSGRLSKSPTPVLSRSGLTSARSAESLLESTKLRPREMDGMDSGGVYASPTCSNMADHALSFRSLVPSEPLSICSDELDHCSNVSNDSREGSGGSVHGDFPKHRLNKCKGTCPASYTRFTTIRKHEQQSSRQSDWRSDSRGDKNSLLRNIHLMSPLPFRLKKPLQQHPRQPPPSDSSESPAGQKADLPCHDPQDQPHSAGKPQVPTRLSSRHTMARLSHNSEPPLDRPAGLEDCTRAINNGNPVPYSDHGLDRNNNPQSELAAAHGDSESPRHFIPADYLESTEEFIRRRHDDKEKLLADQRRLKREQEEADIAARRHTGVIPTHHQFITNERFGDLLNIDDTAKRKSGLEMRPARAKFDFKAQTLKELPLQKGDVVYIYRQIDQNWYEGEHHGRVGIFPRTYIELLPPAEKAQPRKLAPVQVLEYGEAIAKFNFNGDTQVEMSFRKGERITLLRQVDENWYEGRIPGTSRQGIFPITYVDVLKRPLVKTPVDYIDLPYSSSPSRSATVSPQQPQAQQRRVTPDRSQPSLDLCSYQALYSYVPQNDDELELRDGDIVDVMEKCDDGWFVGTSRRTRQFGTFPGNYVKPLYL"
